Data as given in PubChem BioAssay AID1259308 (NCATS, 2017).
The whole screen tested about 59,000 reagents; below is a random part of them. About 1,510 of them (2.6%) were called active. 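Calls use total luciferase alone and ignore viability, so some active siRNAs may act by altering cell number.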 Unmarked entries are inactive. Reagents against one gene are numbered here. Not all columns of the deposit are shown.

- Test: 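Candidate targets for better recombinant protein yield in mammalian cells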 (primary screen)
- System: human HEK293 embryonic kidney cells stably expressing firefly luciferase (HEK-CMV-Luc2-Hygro)
- Reagent: single siRNA against human genes, 0.8 pmol siRNA per well
- Timing: 72 h
- Measured: 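Luciferase light (ONE-Glo) measured on one replicate plate set and viability (CellTiter-Glo) on the other, scaled to a negative control siRNA, with robust z-scores and luciferase per cell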
- Direction: total luciferase, z-score: higher = more reporter protein produced
- Active means: 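An siRNA counts as active if its total luciferase robust z-score exceeds 3; genes with two or more such siRNAs out of three were retested with fresh siRNAs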
- Calls: active = raised luciferase; inactive = no rise

STON1-GTF2A1L (GeneID 286749) #1: total luciferase, z-score = -0.00487
STON1-GTF2A1L (GeneID 286749) #2: total luciferase, z-score = -0.528
STON1-GTF2A1L (GeneID 286749) #3: total luciferase, z-score = -1.14
PLXDC1 (GeneID 57125) #1: total luciferase, z-score = -1.14
PLXDC1 (GeneID 57125) #2: total luciferase, z-score = 1.42
PLXDC1 (GeneID 57125) #3: total luciferase, z-score = -3.48
ZNF740 (GeneID 283337) #1: total luciferase, z-score = -0.0791
ZNF740 (GeneID 283337) #2: total luciferase, z-score = -0.437
ZNF740 (GeneID 283337) #3: total luciferase, z-score = 2.27
CEP85L (GeneID 387119) #1: total luciferase, z-score = -0.318
CEP85L (GeneID 387119) #2: total luciferase, z-score = 0.734
CEP85L (GeneID 387119) #3: total luciferase, z-score = -1.7
OR5B17 (GeneID 219965) #1: total luciferase, z-score = 0.28
OR5B17 (GeneID 219965) #2: total luciferase, z-score = -0.543
OR5B17 (GeneID 219965) #3: total luciferase, z-score = 0.687

Sorted by “total luciferase, z-score” (low to high): 5 of the entries above
PLXDC1 (GeneID 57125) #3: total luciferase, z-score = -3.48
STON1-GTF2A1L (GeneID 286749) #3: total luciferase, z-score = -1.14
PLXDC1 (GeneID 57125) #1: total luciferase, z-score = -1.14
STON1-GTF2A1L (GeneID 286749) #2: total luciferase, z-score = -0.528
PLXDC1 (GeneID 57125) #2: total luciferase, z-score = 1.42

More entries:
LPP (GeneID 4026) #1: total luciferase, z-score = -0.704
LPP (GeneID 4026) #2: total luciferase, z-score = -0.138
LPP (GeneID 4026) #3: total luciferase, z-score = -0.358
ALG2 (GeneID 85365) #1: total luciferase, z-score = -1.17
ALG2 (GeneID 85365) #2: total luciferase, z-score = 0.835
ALG2 (GeneID 85365) #3: total luciferase, z-score = -0.693
NUP43 (GeneID 348995) #1: total luciferase, z-score = 0.581
NUP43 (GeneID 348995) #2: total luciferase, z-score = -0.0632
NUP43 (GeneID 348995) #3: total luciferase, z-score = -1.15
LOC730110 (GeneID 730110) #1: total luciferase, z-score = -0.501
LOC730110 (GeneID 730110) #2: total luciferase, z-score = -0.629
LOC730110 (GeneID 730110) #3: total luciferase, z-score = 0.245
RAB9B (GeneID 51209) #1: total luciferase, z-score = -0.184
RAB9B (GeneID 51209) #2: total luciferase, z-score = 0.273
RAB9B (GeneID 51209) #3: total luciferase, z-score = 1.3
S100Z (GeneID 170591) #1: total luciferase, z-score = 0.955
S100Z (GeneID 170591) #2: total luciferase, z-score = 1.46
S100Z (GeneID 170591) #3: total luciferase, z-score = 0.191
